# Some of the results follow. These are further read-outs of the screen, such as a control signal, another cell line or another target. No call is given for them. Most of these compounds were active or inconclusive in the main read-out, so they are no random draw. Words in brackets tell the shape of the fitted curve; partial curves, single points and poor fits give uncertain potencies.
# Assay: qHTS Assay for Lipid Storage Modulators in Drosophila S3 Cells;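 for cell number change: cells counted by Cell Tracker Red CMTPX staining in the red channel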
# Conditions: BODIPY lipid droplet fluorescence, 18-24 h; for cell number change: measured here: cell count max response, cells fed with added oleic acid
# Summary of the method: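 Drosophila S3 cells loaded with oleic acid (400 uM, as added) and compounds at several concentrations; lipid droplets imaged by 488-nm laser-scanning cytometry, 500–530 nm intensity and object ratio to cell channel. Percent activity normalized to 20 uM Triacsin C.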
# [1] = measured here: cell number channel AC50, cells fed with added oleic acid
# [2] = measured here: lipid fluorescence (Fed channel) AC50, cells fed with added oleic acid
Structure (SMILES),cell number change [%],AC50 [1],AC50 [2]
CCOc1ccc(C(O)Cn2c(=N)n(CCN3CCCCC3)c3ccccc32)cc1 (centres undefined),-34.4,"29.1 µM [falling, single point]","29.1 µM [falling, single point]"
COc1ccc(-c2cc(C(=O)Nc3cc(C)n(Cc4ccc(Cl)cc4)n3)no2)cc1OC,-3.48,,
O=S(=O)(c1ccc2c(c1)OCCO2)N1CCC(n2nnc3cc(C(F)(F)F)ccc32)CC1,-22.4,,
Cc1ccc(O)c(N=CC2=C(O)c3ccccc3C2=O)c1,48.3,"11.6 µM [rising, partial curve]",
O=C(COc1ncnc2ccccc12)NCC1CCCO1 (centres undefined),62.7,,"0.164 µM [falling, partial curve, poor fit]"
COc1ccc(CC(=O)NCc2ccc(Cl)cc2)cc1S(=O)(=O)N1CCOCC1,-7.37,,"20.6 µM [rising, single point]"
CC(C)(C)c1ccc(OCc2cnc(Cl)s2)cc1,-21.5,,
O=C(CCCn1c(=O)[nH]c2ccccc2c1=O)NC1CCCCCC1,-55.6,"18.4 µM [falling, single point]","29.1 µM [falling, single point]"
C=CCN1C(=O)C(C)S/C1=N\S(=O)(=O)c1ccc(Cl)cc1 (centres undefined),-16.7,"6.51 µM [falling, single point]",
CCOc1cc2c(cc1/C=C1/NC(=O)N(CC(=O)OC)C1=O)OCO2,-44.4,"0.0058 µM [falling, full curve, poor fit]","7.31 µM [falling, partial curve]"
COc1ccc(-n2nc3c(c2NC(=O)c2ccc(N4C(=O)CCC4=O)cc2)CSC3)cc1,-19.2,,"2.06 µM [rising, partial curve]"
COc1ccc(CCN(C)C(=O)COc2ccc(N(C)S(=O)(=O)c3ccc(C)cc3)cc2)cc1OC,14.5,"3.26 µM [rising, single point]","1.64 µM [rising, partial curve]"
COc1ccccc1OCC(=O)Nc1ccc(S(=O)(=O)N2CCCCCC2)cc1,,,"0.00461 µM [rising, full curve, poor fit]"
Cc1ccc(C)n1-c1cccc(NC(=O)c2ccccc2)c1,5.7,,"11.6 µM [rising, partial curve]"
COc1ccc2nc(SCC(=O)NC3CC3)c(C#N)cc2c1,117,"14.6 µM [rising, partial curve]",
COC(=O)/C(=C\Nc1ccccc1)NC(=O)c1ccc(Cl)cc1Cl,45.3,"29.1 µM [rising, single point]",
Cc1ccc(-n2nnnc2-c2nc3ccccc3s2)cc1,25.7,,
Cc1ccc(-n2c(COc3cccc(C)c3)n[nH]c2=S)cc1,11.1,,
Cc1ccccc1CNC(=O)C1CCC(=O)N(C2CCCCCC2)C1 (centres undefined),,,"6.51 µM [rising, single point]"
COc1cccc(C(=O)NCCS(=O)(=O)NCCCc2ccccc2)c1,49.7,"13 µM [rising, partial curve, poor fit]",

Structure (SMILES),cell number change [%],AC50 [1],AC50 [2]
COc1ccc(OC)c(NC(=O)CN2CCC(C(=O)c3ccc(C)cc3)CC2)c1,-2.71,,"5.8 µM [rising, full curve]"
CN1CCC(=NNC(=O)CN(c2cccc([N+](=O)[O-])c2)S(=O)(=O)c2ccccc2)CC1,-23.8,,"6.51 µM [falling, single point]"
CCc1ccccc1NC(=O)c1ccc(Cn2cc([N+](=O)[O-])cn2)cc1,19.4,"0.116 µM [rising, full curve, poor fit]",
O=C(O)c1ccc(N2CCCC2=O)cc1,,,"0.651 µM [rising, single point]"
CCOCCCN(C(=O)CNC(=O)c1ccco1)C(C(=O)NC1CCCC1)c1cccc(OC)c1 (centres undefined),-36.5,"0.259 µM [falling, full curve]",
O=C(C=C1CCN(c2ncc(C(F)(F)F)cc2Cl)CC1)NNC(=O)Nc1ccccc1,-19.9,"4.11 µM [falling, full curve, poor fit]","6.51 µM [falling, single point]"
CC(=O)Nc1ccc(S(=O)(=O)N2CCCC(C(=O)N3CCN(c4ccccc4)CC3)C2)cc1 (centres undefined),-54.1,"16.4 µM [falling, partial curve]",
CCN(CC)S(=O)(=O)c1ccc2c(c1)c(=O)c(C(=O)NCCc1ccc(OC)c(OC)c1)cn2C,-18.1,,
O=C(Nc1cnc2ccccn2c1=O)c1ccc(F)cc1,-27.3,,
CCn1c(SCC(=O)NCC2CCCO2)nc2cc(S(=O)(=O)N3CCCCC3)ccc21 (centres undefined),0.698,,"13 µM [rising, partial curve]"
CCc1c(C)nc2ncnn2c1N1CCCC(C(=O)NCc2ccco2)C1 (centres undefined),-6.62,"0.58 µM [rising, partial curve]",
COc1ccc(C(C)=O)cc1CSCC(=O)O,-7.93,,
CCOC(=O)c1nnn(-c2nonc2N)c1COc1cc(C)c(Cl)c(C)c1,-128,"29.1 µM [falling, single point]","29.1 µM [falling, single point]"
O=C(NCCCN1CCCC1=O)[C@H](CSCc1ccccc1)N1Cc2ccccc2C1=O,-11,,"0.0651 µM [falling, full curve, poor fit]"
Cn1ncc(Br)c1C(=O)N/N=C/c1cccc(OC2CSC2)c1,-2.31,,"29.1 µM [falling, single point]"
Cc1cc([N+](=O)[O-])nn1Cc1noc(C(=O)NCCCn2ccnc2)n1,3.91,,"1.46 µM [falling, partial curve]"
CCC(=O)Nc1ccc(Cl)c(NC(=S)NC(=O)c2cc3ccccc3o2)c1,-46,"2.91 µM [falling, full curve]","4.11 µM [falling, partial curve, poor fit]"
CCn1c(SCC(=O)NC2CC2)nnc1-c1ccc(C)cc1,1.94,,"1.64 µM [rising, partial curve, poor fit]"
O=C(COc1ccccc1C(=O)c1cnn(-c2ccccc2)c1)Nc1ccc2ccccc2c1,12.9,,"25.9 µM [rising, single point]"

# Full records, looked up by structure:
# Cc1cc([N+](=O)[O-])nn1Cc1noc(C(=O)NCCCn2ccnc2)n1 in the list: cell number change [%]: 3.91; AC50 [2]: 1.46 µM [falling, partial curve]
# O=C(C=C1CCN(c2ncc(C(F)(F)F)cc2Cl)CC1)NNC(=O)Nc1ccccc1 in the list: cell number change [%]: -19.9; AC50 [1]: 4.11 µM [falling, full curve, poor fit]; AC50 [2]: 6.51 µM [falling, single point]

# From PubChem BioAssay AID2685 (National Center for Advancing Translational Sciences (NCATS), 2010)
